Results deposited as PubChem BioAssay AID1224826 (NIAID, 2016).
Test: 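Regulators of Tlr4 signalling leading to Tnf-alpha expression in macrophages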 (primary screen). Cells: RAW264.7 G9 macrophages from mouse bearing reporters for p65 (GFP) and the Tnf promoter (mCherry). Reagent: siRNA pool against mouse genes, 100 nM. Duration: 16 h of LPS stimulation, after 2 days of siRNA transfection. Challenge: bacterial lipopolysaccharide (Salmonella minnesota R595), 10 ng/ml. Detection: 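Nuclear mCherry signal of the Tnf promoter reporter measured by imaging after background removal, scaled to each plate median and turned into robust z-scores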. Direction: Tnf reporter robust z-score: higher = stronger Tnf promoter reporter signal after LPS; Tnf reporter intensity: higher = stronger Tnf promoter reporter signal. Hit rule: 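Called active when robust z-score is at most -1.3, matching the median of the Tlr4 knock-down control, or over 3; control wells and wells with under 50 cells never active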. Calls: active = Tnf reporter clearly lowered or raised; inactive = no clear change in Tnf reporter.
In all, the deposit lists about 17,000 reagents; shown is an unselected part. About 1,110 of all reagents (6.6%) were called active. 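Active means lowered or raised reporter signal; replicate intensities are raw and not normalised per plate.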 Unmarked entries are inactive. The numbers tell different reagents against one gene apart. Further read-outs or replicates are left out here.

gene,reagent no.,Tnf reporter robust z-score,fewer than 50 cells in well,"Tnf reporter intensity, replicate 1"
Adat2,1,-1.97 (active),enough cells in well,61.2
Cebpa,1,,fewer than 50 cells per well; well left out of calls,97.2
Carmil1,1,-0.96,enough cells in well,146
Carmil1,2,-1.07,enough cells in well,109
Lrrc8d,1,0.42,enough cells in well,225
Cacna1s,1,-1.38 (active),enough cells in well,79.5
Mrgprb3,1,0.1,enough cells in well,271
Gli1,1,-0.69,enough cells in well,182
Cldn7,1,-0.77,enough cells in well,82.3
Fgd5,1,0.97,enough cells in well,286
Slc20a1,1,1.16,enough cells in well,119
Lce1d,1,3.74 (active),enough cells in well,245
Flad1,1,1.53,enough cells in well,234
Mrpl27,1,2.16,enough cells in well,328
Col26a1,1,2.51,enough cells in well,342
Slc26a1,1,0.34,enough cells in well,107
Cds1,1,0.76,enough cells in well,193
Speer4a1,1,,fewer than 50 cells per well; well left out of calls,41.6
Lrrc25,1,-0.72,enough cells in well,181
Adgrl3,1,0.53,enough cells in well,261
Rtl8c,1,,fewer than 50 cells per well; well left out of calls,199
Mpg,1,-1.03,enough cells in well,176
Tbxas1,1,-1.12,enough cells in well,148
Ccdc187,1,,fewer than 50 cells per well; well left out of calls,180

Only “Tnf reporter intensity, replicate 1” (4 entries from above):
Adat2 = 61.2 (active)
Cebpa = 97.2
Carmil1 #1 = 146
Carmil1 #2 = 109
